Data: PMC5494197
These are yes or no findings as the source states them, for the method shown. Binding seen in cells or lysates may run through a third protein. Some results given as binding are weak or reduced against the parent protein; the word gives no strength. Sequences can lack the tags named with a protein.

Amino acid sequences for entries named in this document (tags omitted). Residues count along the entry.
UniProt Q03265, residues 44-553: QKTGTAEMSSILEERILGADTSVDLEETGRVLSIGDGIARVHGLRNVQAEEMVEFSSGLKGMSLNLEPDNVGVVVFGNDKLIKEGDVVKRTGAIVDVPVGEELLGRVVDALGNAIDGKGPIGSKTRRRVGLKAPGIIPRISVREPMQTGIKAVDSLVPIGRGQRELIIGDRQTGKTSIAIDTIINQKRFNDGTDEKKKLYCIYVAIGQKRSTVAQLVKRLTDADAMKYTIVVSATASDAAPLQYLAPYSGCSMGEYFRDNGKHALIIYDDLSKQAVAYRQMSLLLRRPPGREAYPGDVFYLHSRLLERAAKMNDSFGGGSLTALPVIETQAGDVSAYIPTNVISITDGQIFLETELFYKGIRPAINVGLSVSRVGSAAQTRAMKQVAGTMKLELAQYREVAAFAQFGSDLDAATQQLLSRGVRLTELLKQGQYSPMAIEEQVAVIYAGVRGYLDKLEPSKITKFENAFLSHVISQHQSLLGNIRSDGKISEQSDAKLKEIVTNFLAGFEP
UniProt P56480, residues 47-529: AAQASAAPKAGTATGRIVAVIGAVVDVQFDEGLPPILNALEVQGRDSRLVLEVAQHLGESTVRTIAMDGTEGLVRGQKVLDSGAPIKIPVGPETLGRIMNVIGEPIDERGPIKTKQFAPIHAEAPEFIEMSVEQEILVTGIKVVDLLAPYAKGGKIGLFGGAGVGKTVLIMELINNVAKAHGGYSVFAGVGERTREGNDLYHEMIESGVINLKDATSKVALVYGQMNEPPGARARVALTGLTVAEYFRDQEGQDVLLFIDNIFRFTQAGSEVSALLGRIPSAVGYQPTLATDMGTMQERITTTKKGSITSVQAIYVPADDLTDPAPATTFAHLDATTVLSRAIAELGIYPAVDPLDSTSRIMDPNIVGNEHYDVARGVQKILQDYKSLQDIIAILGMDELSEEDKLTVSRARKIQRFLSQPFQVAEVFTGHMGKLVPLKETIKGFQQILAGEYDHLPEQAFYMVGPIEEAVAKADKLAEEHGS

Biological target: T1, GST-tagged OSCP (oligomycin sensitivity conferring protein), wild type (human) (UniProt P48047)
T1 sequence: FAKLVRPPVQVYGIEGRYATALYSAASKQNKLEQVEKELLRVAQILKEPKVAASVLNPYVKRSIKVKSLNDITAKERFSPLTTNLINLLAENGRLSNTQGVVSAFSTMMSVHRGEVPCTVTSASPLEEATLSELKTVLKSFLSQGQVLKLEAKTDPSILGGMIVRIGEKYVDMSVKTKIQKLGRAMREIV
Assay: pull-down; GST-tagged OSCP on glutathione agarose, pre-incubated with or without Aβ1–42, unbound Aβ1–42 washed off, then incubated overnight at 4 °C with mitochondria lysates; blotted for α- and β-subunits; only the target purified

Substance: F1FO-ATP synthase α-subunit (from UniProt Q03265 44-553)
- binding: binds

Substance: F1FO-ATP synthase β-subunit (from UniProt P56480 47-529)
- binding: binds
